Consider 24 compounds from PubChem BioAssay AID330 (DTP/NCI, 2004).

The assay deals with P388 leukemia ip, CD2F1 mice, survival T/C. Nature of the assay: NCI In Vivo Anticancer Drug Screen. Data for tumor model P388 Leukemia (intraperitoneal) in CD2F1 (CDF1) mice. The note with it: T/C endpoint: median survival time, higher T/C = longer survival.
Setting [1] is: dose: 100.0 mg/kg/injection, schedule: Q01DX009 (ip), vehicle: saline with Tween-80.
[2] abbreviates: dose: 200.0 mg/kg/injection, schedule: Q01DX009 (ip), vehicle: saline with Tween-80.
[3] abbreviates: dose: 3.12 mg/kg/injection, schedule: Q01DX009 (ip), vehicle: saline.
Where [4] appears, read: dose: 100.0 mg/kg/injection, schedule: Q01DX005 (ip), vehicle: saline.
Setting [5] is: dose: 200.0 mg/kg/injection, schedule: Q01DX005 (ip), vehicle: saline.
Setting [6] is: dose: 100.0 mg/kg/injection, schedule: Q01DX005 (ip), vehicle: saline with Tween-80.
Where [7] appears, read: dose: 200.0 mg/kg/injection, schedule: Q01DX005 (ip), vehicle: saline with Tween-80.
[8] abbreviates: dose: 1600.0 mg/kg/injection, schedule: Q04DX003 (oral), vehicle: saline with Tween-80.
Where [9] appears, read: dose: 100.0 mg/kg/injection, schedule: Q04DX002 (ip), vehicle: saline with Tween-80.
Setting [10] is: dose: 400.0 mg/kg/injection, schedule: Q04DX002 (ip), vehicle: saline with Tween-80.

SMILES strings stand for the structures. The list is a part of this screen's results and no random one: it is rich in T/C values a quarter to a half above the control, in often repeated tests (any T/C) and in doses without a T/C. Other doses and runs of a compound stand elsewhere. T/C is the treated group as % of the vehicle group. Some doses have a count of surviving animals in place of a T/C: the source files T/C as zero there, which appears to mark a toxic dose or a test without result, not a measured value. Some survivor counts are full or nearly so, which does not show that the dose was tolerated: survival well below the control is almost never listed, so the zero probably covers shortened survival too. Counts of survivors are from the toxicity check (mostly the fifth day) where no day follows; animals may have died later. Schedules are NCI's codes, read here as Q, the interval in days (D) or hours (H), X, the number of doses. Some entries were tested several times; their values stand side by side, smallest first. For survival time, the PubChem record calls one and a half times the control and up active, and a quarter to a half above the control has no call in these data; cut-offs in other NCI protocols can differ. Some T/C values are followed by the survivors on the day toxicity was checked, most often the fifth; without a count, all were alive then.

For `CCCCOP(=O)(CCCC)OCCCC.CCCCOP(=O)(CCCC)OCCCC.CCCCOP(=O)(CCCC)OCCCC.CCCCOP(=O)(CCCC)OCCCC.O.O.[Co+2].[O-][Cl+3]([O-])([O-])O`, the survivor count reads like this: under setting [1], 6 of 6; under setting [2], 0 of 6.
In the case of `O=C(NNC(O)C(F)(F)F)c1ccccc1F` (stereo not given), the survivor count runs as follows: (dose: 200.0 mg/kg/injection, schedule: Q04DX002 (ip), vehicle: Klucel (hydroxypropylcellulose) (HPC)) 1 of 6; (dose: 400.0 mg/kg/injection, schedule: Q04DX002 (ip), vehicle: Klucel (hydroxypropylcellulose) (HPC)) 0 of 6.
As to `O=C1CSC2(CCN(CCCN3c4ccccc4Sc4ccc(Cl)cc43)CC2)N1`, the survivor count under setting [2] is 0 of 6.
The same measure, in the same setting: then `O=C(O)C(Cc1ccc([N+](=O)[O-])cc1)NCc1ccco1` (stereo not given), with 3 of 6.
As to `Cc1ccc(C(=O)CCN(C)C)cc1`, the survivor count (dose: 200.0 mg/kg/injection, schedule: Q01DX009 (ip), vehicle: saline) is reported as 0 of 6.
For `C=CS(C=C)=NS(=O)(=O)c1ccc(C)cc1`, the T/C (dose: 25.0 mg/kg/injection, schedule: Q01DX009 (ip), vehicle: other) is 130 and 132 % of control. For the same compound, the survivor count runs as follows: (dose: 50.0 mg/kg/injection, schedule: Q01DX009 (ip), vehicle: other) 0 of 6 and 1 of 6; (dose: 100.0 mg/kg/injection, schedule: Q01DX009 (ip), vehicle: other) 0 of 6; (dose: 200.0 mg/kg/injection, schedule: Q01DX009 (ip), vehicle: other) 0 of 6.
Regarding `CN(C)CCOc1ccc2c(c1)CC/C(=C\c1ncc([N+](=O)[O-])n1C)C2=O`, the survivor count is, setting by setting: under setting [1], 0 of 6; under setting [2], 0 of 6.
For the compound `FC(F)(F)c1ssc1C(F)(F)F`, the survivor count (dose: 400.0 mg/kg/injection, schedule: Q01DX001 (ip), vehicle: other) is on record as 2 of 6.
For `N/C(=N\N=C\c1cccnc1)SCCCCBr`, the survivor count was 5 of 6 (dose: 1.56 mg/kg/injection, schedule: Q01DX009 (ip), vehicle: saline); 0 of 6 under setting [3]; 0 of 6 and 2 of 6 (dose: 6.25 mg/kg/injection, schedule: Q01DX001 (ip), vehicle: saline); 0 of 6 (dose: 6.25 mg/kg/injection, schedule: Q01DX009 (ip), vehicle: saline); 0 of 6 (dose: 12.5 mg/kg/injection, schedule: Q01DX001 (ip), vehicle: saline); 0 of 6 (dose: 25.0 mg/kg/injection, schedule: Q01DX001 (ip), vehicle: saline). Also, the survivor count by setting is: (dose: 50.0 mg/kg/injection, schedule: Q01DX001 (ip), vehicle: saline) 0 of 6; (dose: 100.0 mg/kg/injection, schedule: Q01DX001 (ip), vehicle: saline) 0 of 6; (dose: 200.0 mg/kg/injection, schedule: Q01DX001 (ip), vehicle: saline) 0 of 6. Moreover, the T/C (dose: 3.12 mg/kg/injection, schedule: Q01DX001 (ip), vehicle: saline) was 148 % of control.
As to `Nc1nc(Cl)nc2c1ncn2C1OC(CO)C(O)C1O` (stereo not given), the T/C (dose: 12.5 mg/kg/injection, schedule: Q01DX010 (ip), vehicle: carboxymethylcellulose (CMC)) is 130 % of control.
On to `CNCC(CO)C(C)(C)C` (stereo not given), for which the survivor count (dose: 400.0 mg/kg/injection, schedule: Q04DX003 (ip), vehicle: saline) is 0 of 6.
Consider `N=C(N)SCc1cccc2c(=O)cc(-c3ccccc3)oc12`, for which the T/C (dose: 100.0 mg/kg/injection, schedule: Q01DX009 (ip), vehicle: saline) is 130 [5 of 6 alive] and 133 % of control.
As for `CCOC(=O)c1c[nH]c2ccc(N(CCCl)CCCl)cc12`, the survivor count (dose: 50.0 mg/kg/injection, schedule: Q01DX009 (ip), vehicle: saline with Tween-80) is reported as 6 of 6.
With `CN(C)CCN(C)c1cccc2c1C(=O)c1cscc1C2=O`, for the setting “dose: 12.5 mg/kg/injection, schedule: Q01DX005 (ip), vehicle: saline”, the T/C is 144 % of control. In addition, the survivor count is, setting by setting: under setting [4], 0 of 6; under setting [5], 0 of 6.
Turning to `C1CN2CCN3CCCN(CCN(C1)C2)C3`, the survivor count reads like this: (dose: 50.0 mg/kg/injection, schedule: Q01DX005 (ip), vehicle: saline) 1 of 6; under setting [6], 0 of 6; under setting [7], 0 of 6.
`CNC(=O)Nc1nc2ccc([N+](=O)[O-])cc2[nH]1`: the T/C under setting [8] was 140 % of control. In addition, the survivor count under setting [8] is given as 6 of 6 and the survivor count (dose: 2400.0 mg/kg/injection, schedule: Q04DX003 (oral), vehicle: saline with Tween-80) is given as 5 of 6.
`O=C1c2ccccc2C(=O)C1(Br)C(Cl)c1ccccc1` (stereo not given): the survivor count (dose: 200.0 mg/kg/injection, schedule: Q01DX009 (ip), vehicle: Klucel (hydroxypropylcellulose) (HPC)) is 5 of 6 and the survivor count (dose: 400.0 mg/kg/injection, schedule: Q04DX003 (ip), vehicle: Klucel (hydroxypropylcellulose) (HPC)) was 5 of 6.
Regarding `CC1C(c2ccccc2)OC(N2CCOCC2)C(C)(C)CN1C` (stereo not given), where the note is “dose: 400.0 mg/kg/injection, schedule: Q01DX005 (ip), vehicle: saline with Tween-80”, the T/C is 126 % of control. Further, the survivor count (dose: 800.0 mg/kg/injection, schedule: Q01DX005 (ip), vehicle: saline with Tween-80) was 0 of 6.
As for `CC1C(c2ccccc2)OCCN1C(=S)Nc1ccc(S(=O)(=O)N2CCCCC2)cc1` (stereo not given), the survivor count (dose: 100.0 mg/kg/injection, schedule: Q01DX009 (ip), vehicle: Klucel (hydroxypropylcellulose) (HPC)) is reported as 5 of 6.
For the compound `C[n+]1c(-c2cccc3ccccc23)c2cc(N)ccc2c2ccccc21`, the T/C runs as follows: under setting [3], 129 % of control; (dose: 3.13 mg/kg/injection, schedule: Q01DX009 (ip), vehicle: water) 128 % of control; (dose: 5.3 mg/kg/injection, schedule: Q01DX009 (ip), vehicle: water) 131 % of control; (dose: 6.25 mg/kg/injection, schedule: Q01DX009 (ip), vehicle: water) 132 % of control; (dose: 8.0 mg/kg/injection, schedule: Q01DX009 (ip), vehicle: water) 134 % of control; (dose: 12.5 mg/kg/injection, schedule: Q01DX009 (ip), vehicle: water) 142 % of control. For the same compound, the survivor count is given as 6 of 6 (dose: 18.0 mg/kg/injection, schedule: Q01DX009 (ip), vehicle: water) and 4 of 6 (dose: 25.0 mg/kg/injection, schedule: Q01DX009 (ip), vehicle: saline).
In the case of `COc1ccc(C)cc1NC(=O)Sc1ccc(Cl)cc1`, the T/C under setting [6] is 127 % of control. The survivor count (dose: 200.0 mg/kg/injection, schedule: Q01DX005 (ip), vehicle: saline + Tween-80 + alcohol) is recorded as 4 of 6 and the survivor count under setting [7] is 6 of 6.
`[CH3][Sn]([CH3])([O]C(=O)c1ccccc1)[O]C(=O)c1ccccc1`: the survivor count (dose: 200.0 mg/kg/injection, schedule: Q01DX005 (ip), vehicle: Klucel (hydroxypropylcellulose) (HPC)) is given as 0 of 6.
In the case of `Cc1nn(C(N)=S)c(C)c1N=Nc1ccc(Cl)cc1Cl`, the T/C reads like this: under setting [9], 91, 108, 140 % of control; (dose: 200.0 mg/kg/injection, schedule: Q04DX002 (ip), vehicle: saline with Tween-80) 86, 96, 107, 140 % of control; under setting [10], 96, 103, 149 % of control. Further, the survivor count is, setting by setting: under setting [9], 6 of 6; under setting [10], 1 of 6; (dose: 600.0 mg/kg/injection, schedule: Q04DX002 (ip), vehicle: saline with Tween-80) 0 of 6.
For the compound `O=N[O-].O=N[O-].[I][Pt][I]`, the T/C by setting is: (dose: 25.0 mg/kg/injection, schedule: Q01DX005 (ip), vehicle: saline) 125 % of control; (dose: 50.0 mg/kg/injection, schedule: Q01DX005 (ip), vehicle: saline, evaluated on day 20) 137 % of control; (dose: 50.0 mg/kg/injection, schedule: Q01DX005 (ip), vehicle: saline, evaluated on day 30) 126 % of control. Moreover, the survivor count is reported as 5 of 6 under setting [4] and 0 of 6 under setting [5].
